Results from publication PMC12286842.
No constants are given. Whether binding was seen depends on the method and setting. Binding seen in cells or lysates may run through a third protein. For part of these data: Binding can be weak; no strength is given.

The chains behind the UniProt entries cited, without tags or fusion partners. Where a name states a change or a piece, a line headed by the entry shows the natural chain unless it says otherwise.
UniProt Q9P0J7: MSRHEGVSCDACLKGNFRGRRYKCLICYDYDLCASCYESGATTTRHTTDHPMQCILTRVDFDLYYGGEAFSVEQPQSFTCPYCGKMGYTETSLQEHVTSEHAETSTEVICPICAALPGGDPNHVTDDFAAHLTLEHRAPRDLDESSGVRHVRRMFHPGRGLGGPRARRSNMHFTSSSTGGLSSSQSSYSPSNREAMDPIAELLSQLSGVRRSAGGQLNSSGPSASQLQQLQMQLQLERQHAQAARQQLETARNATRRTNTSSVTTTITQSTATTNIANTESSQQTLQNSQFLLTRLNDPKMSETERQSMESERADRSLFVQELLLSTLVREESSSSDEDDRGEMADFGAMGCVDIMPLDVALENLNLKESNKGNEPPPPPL
UniProt Q9NUJ1: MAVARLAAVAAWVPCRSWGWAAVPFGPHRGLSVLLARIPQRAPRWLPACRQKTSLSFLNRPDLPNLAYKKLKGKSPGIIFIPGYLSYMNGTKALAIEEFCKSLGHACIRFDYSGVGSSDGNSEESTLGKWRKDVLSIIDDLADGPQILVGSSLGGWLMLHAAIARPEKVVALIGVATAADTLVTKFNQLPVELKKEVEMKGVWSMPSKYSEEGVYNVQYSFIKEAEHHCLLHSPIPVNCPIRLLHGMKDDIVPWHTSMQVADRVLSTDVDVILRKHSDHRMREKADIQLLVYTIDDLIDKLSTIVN

Assays:
[1] = biological target: KCMF1–3×Flag (wild type) (human) (UniProt Q9P0J7); assay: co-IP; anti-Flag M2 affinity purification of KCMF1–Flag variants from cell lysate (40 mM HEPES 7.5, 150 mM NaCl, 0.1% NP-40), Western blot for endogenous UBR4, ABHD10 or ABHD10^HA
[2] = biological target: KCMF1–3×Flag (wild type) (human) (UniProt Q9P0J7); assay: co-IP; KCMF1–Flag immunoprecipitation from ΔUBR4 HEK293T cells, blot for ABHD10–HA
[3] = biological target: KCMF1–Flag ΔZZ (human) (UniProt Q9P0J7); assay: as above

binding [1]: binds
binding [2]: binds
binding [3]: no binding
Substance: ABHD10–3×HA (from UniProt Q9NUJ1)
